According to PubChem BioAssay AID180 (DTP/NCI, 2004):
The list is a part of this screen's results and no random one: it gathers tests that were run many times, whatever their T/C, doses with no T/C, and many T/C values between a quarter and a half above the control. Further doses and runs are listed elsewhere. T/C: endpoint of the treated group in % of that of the vehicle group. Schedules are NCI's codes, taken here to give the interval after Q, in days (D) or hours (H), and the number of doses after X. Some T/C values carry the count of animals alive at the toxicity check (mostly the fifth day); where none is given, no animal had died by that day. Some entries hold several experiments; the values are given in rising order. Counts like (3×) stand for listed records that agree. Some doses have a count of surviving animals in place of a T/C: the source holds a T/C of zero for them, seemingly a mark for toxic or unscored doses. Counts of survivors are from the toxicity check (mostly the fifth day) where no day follows; animals may have died later.

System: BDF1 mice, Adenocarcinoma 755 s.c., tumor weight T/C
Assay: NCI In Vivo Anticancer Drug Screen. Data for tumor model Adenocarcinoma 755 (subcutaneous) in B6D2F1 (BDF1) mice
Details: T/C endpoint: mean tumor weight, higher T/C = larger tumour; for T/C: evaluated on day 12
How it was run: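 Transplantable tumor implanted; mice dosed with compound or vehicle; survival or tumor size recorded; ratio of treated to vehicle control reported.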

[1] = dose: 40.0 mg/kg/injection, schedule: Q01DX011 (ip), vehicle: methylcellulose (MC)
[2] = dose: 50.0 mg/kg/injection, schedule: Q01DX011 (ip), vehicle: methylcellulose (MC)
[3] = dose: 240.0 mg/kg/injection, schedule: Q01DX011 (ip), vehicle: carboxymethylcellulose (CMC)

S=c1nc[nH]c2nc[nH]c12
T/C (dose: 0.04 mg/kg/injection, schedule: Q01DX011 (ip), vehicle: methylcellulose (MC)): 39, 58, 65, 72 [8 of 10 alive], 76, 76 [9 of 10 alive], 77, 83, 84 [8 of 10 alive], 93 [9 of 10 alive], 119 % of control [9 of 10 alive]
T/C (dose: 0.1 mg/kg/injection, schedule: Q01DX011 (ip), vehicle: carboxymethylcellulose (CMC)): 45, 63, 95, 103, 123 % of control
T/C (dose: 0.15 mg/kg/injection, schedule: Q01DX011 (ip), vehicle: methylcellulose (MC)): 30, 35, 40 [8 of 10 alive], 44 [8 of 10 alive], 48, 53 [9 of 10 alive], 58, 66 [8 of 10 alive], 71 [8 of 10 alive], 74 [9 of 10 alive], 81, 82 % of control
T/C (dose: 0.2 mg/kg/injection, schedule: Q01DX011 (ip), vehicle: methylcellulose (MC)): 11, 52, 55 [8 of 10 alive], 62, 69 [8 of 10 alive], 75 (2×), 94 [9 of 10 alive], 98 % of control [9 of 10 alive]
T/C (dose: 0.43 mg/kg/injection, schedule: Q01DX011 (ip), vehicle: carboxymethylcellulose (CMC)): 25 [8 of 10 alive], 33, 37, 52, 63, 79, 92 (2×), 99, 100 % of control [8 of 10 alive]
T/C (dose: 0.5 mg/kg/injection, schedule: Q01DX011 (ip), vehicle: carboxymethylcellulose (CMC)): 16 [9 of 10 alive], 32, 42, 47, 48, 51, 56 [9 of 10 alive], 60, 73, 77 % of control
T/C (dose: 0.6 mg/kg/injection, schedule: Q01DX011 (ip), vehicle: methylcellulose (MC)): 18 [9 of 10 alive], 27 [8 of 10 alive], 29, 33, 34, 42, 45 [9 of 10 alive], 47, 53, 57, 60, 61 % of control
T/C (dose: 0.8 mg/kg/injection, schedule: Q01DX011 (ip), vehicle: methylcellulose (MC)): 11 [9 of 10 alive], 17 [8 of 10 alive], 24 [9 of 10 alive], 25, 36, 39 [9 of 10 alive], 55, 57, 77 % of control
T/C (dose: 0.87 mg/kg/injection, schedule: Q01DX011 (ip), vehicle: carboxymethylcellulose (CMC)): 4 [8 of 10 alive], 6 [9 of 10 alive], 11 [8 of 10 alive], 15 [7 of 10 alive], 19 [9 of 10 alive], 23, 27, 35, 37, 48 % of control
T/C (dose: 0.87 mg/kg/injection, schedule: Q01DX011 (oral), vehicle: carboxymethylcellulose (CMC)): 48 [7 of 9 alive], 62, 64, 79, 83 (2×), 85 [9 of 10 alive], 95, 111, 138 % of control
T/C (dose: 1.0 mg/kg/injection, schedule: Q01DX011 (ip), vehicle: carboxymethylcellulose (CMC)): 6, 12, 25, 28 [9 of 10 alive], 30, 33, 34, 55 % of control
T/C (dose: 1.7 mg/kg/injection, schedule: Q01DX011 (ip), vehicle: carboxymethylcellulose (CMC)): 1 [9 of 10 alive], 6, 7 (3×), 12 (2×), 13, 19, 27 % of control
T/C (dose: 1.7 mg/kg/injection, schedule: Q01DX011 (oral), vehicle: carboxymethylcellulose (CMC)): 24 [8 of 10 alive], 39, 43, 46 (2×), 65, 73, 80, 88, 400 % of control [9 of 10 alive]
T/C (dose: 2.5 mg/kg/injection, schedule: Q01DX011 (ip), vehicle: carboxymethylcellulose (CMC)): 1, 2 (2×), 3, 7 % of control
T/C (dose: 2.5 mg/kg/injection, schedule: Q01DX011 (ip), vehicle: methylcellulose (MC)): 2, 2 [9 of 10 alive], 4 [7 of 10 alive], 5, 5 [9 of 10 alive], 6 [9 of 10 alive] (2×), 7 (3×), 9 [9 of 10 alive], 11 [9 of 10 alive], 12 [9 of 10 alive], 14 [9 of 10 alive], 15 (4×), 18 (2×), 21 % of control [8 of 10 alive]
T/C (dose: 3.5 mg/kg/injection, schedule: Q01DX011 (ip), vehicle: carboxymethylcellulose (CMC)): 1 (3×), 2, 3 (2×), 3 [9 of 10 alive] (2×), 4 (4×), 5, 5 [9 of 10 alive], 6, 6 [9 of 10 alive], 8 (2×), 8 [8 of 10 alive], 23 % of control
T/C (dose: 3.5 mg/kg/injection, schedule: Q01DX011 (oral), vehicle: carboxymethylcellulose (CMC)): 3, 12, 13, 14, 15, 17 [8 of 10 alive], 20, 20 [9 of 10 alive], 24, 58 % of control
T/C (dose: 5.0 mg/kg/injection, schedule: Q01DX011 (ip), vehicle: carboxymethylcellulose (CMC)): 1 (3×), 4, 10 % of control
T/C (dose: 7.0 mg/kg/injection, schedule: Q01DX011 (ip), vehicle: carboxymethylcellulose (CMC)): 1, 2 (2×), 3 % of control [9 of 10 alive]
T/C (dose: 7.0 mg/kg/injection, schedule: Q01DX011 (oral), vehicle: carboxymethylcellulose (CMC)): 2, 3, 4, 5, 5 [9 of 10 alive], 6 (2×), 7 (2×), 8 [7 of 9 alive], 9, 11, 12, 15, 19 % of control [8 of 10 alive]
T/C (dose: 10.0 mg/kg/injection, schedule: Q01DX011 (ip), vehicle: carboxymethylcellulose (CMC)): 1 (2×), 4, 7 % of control
T/C (dose: 10.0 mg/kg/injection, schedule: Q01DX011 (ip), vehicle: methylcellulose (MC)): 1 [9 of 10 alive], 2, 2 [8 of 10 alive], 3 (4×), 3 [9 of 10 alive] (2×), 4 (2×), 4 [7 of 10 alive], 5, 5 [9 of 10 alive], 6 (2×), 6 [9 of 10 alive], 8, 9, 12, 13 % of control
T/C (dose: 14.0 mg/kg/injection, schedule: Q01DX011 (ip), vehicle: carboxymethylcellulose (CMC)): 1 [9 of 10 alive], 2 (2×), 2 [9 of 10 alive], 3 % of control
T/C (dose: 14.0 mg/kg/injection, schedule: Q01DX011 (oral), vehicle: carboxymethylcellulose (CMC)): 1 (2×), 2, 3 % of control
T/C (dose: 20.0 mg/kg/injection, schedule: Q01DX011 (ip), vehicle: carboxymethylcellulose (CMC)): 1 [7 of 10 alive], 2, 4, 5 % of control
survivor count (dose: 21.4 mg/kg/injection, schedule: Q01DX011 (ip), vehicle: carboxymethylcellulose (CMC)): 6 of 10
T/C (dose: 28.0 mg/kg/injection, schedule: Q01DX011 (ip), vehicle: carboxymethylcellulose (CMC)): 1, 2 (3×), 4 % of control
T/C (dose: 28.0 mg/kg/injection, schedule: Q01DX011 (oral), vehicle: carboxymethylcellulose (CMC)): 1 (2×) and 2 % of control (3×)
survivor count (dose: 30.0 mg/kg/injection, schedule: Q01DX011 (ip), vehicle: carboxymethylcellulose (CMC)): 0 of 10
T/C [1]: 1 [7 of 10 alive], 1 [9 of 10 alive], 2 [7 of 10 alive] (2×), 2 [8 of 10 alive], 2 [9 of 10 alive], 3 [7 of 10 alive] (2×), 3 [9 of 10 alive] (2×), 4 [7 of 10 alive], 4 [9 of 10 alive] (2×), 5 [8 of 10 alive] (2×), 6 % of control [8 of 10 alive] (2×)
survivor count [1]: 5 of 10 and 6 of 10
T/C [2]: 2 [9 of 10 alive], 3 [7 of 10 alive], 4 [7 of 10 alive], 5 % of control [7 of 10 alive]
survivor count [2]: 2 of 10, 3 of 10, 4 of 10, 5 of 10, 6 of 10
T/C (dose: 56.0 mg/kg/injection, schedule: Q01DX011 (oral), vehicle: carboxymethylcellulose (CMC)): 1, 2 [8 of 10 alive], 3 % of control [9 of 10 alive] (2×)
survivor count (dose: 120.0 mg/kg/injection, schedule: Q01DX011 (ip), vehicle: alkali diluted with saline): 2 of 10
survivor count (dose: 120.0 mg/kg/injection, schedule: Q01DX011 (oral), vehicle: alkali diluted with saline): 6 of 10
survivor count (dose: 250.0 mg/kg/injection, schedule: Q01DX011 (ip), vehicle: saline): 2 of 10
survivor count (dose: 320.0 mg/kg/injection, schedule: Q01DX001 (ip), vehicle: alkali diluted with saline): 2 of 10
survivor count (dose: 320.0 mg/kg/injection, schedule: Q03DX004 (ip), vehicle: alkali diluted with saline): 3 of 10 and 6 of 10
survivor count (dose: 320.0 mg/kg/injection, schedule: Q07DX002 (ip), vehicle: alkali diluted with saline): 6 of 10
survivor count (dose: 480.0 mg/kg/injection, schedule: Q01DX001 (ip), vehicle: alkali diluted with saline): 2 of 10
survivor count (dose: 640.0 mg/kg/injection, schedule: Q03DX004 (oral), vehicle: alkali diluted with saline): 5 of 10
survivor count (dose: 960.0 mg/kg/injection, schedule: Q01DX001 (oral), vehicle: alkali diluted with saline): 1 of 10
survivor count (dose: 960.0 mg/kg/injection, schedule: Q07DX002 (oral), vehicle: alkali diluted with saline): 3 of 10
survivor count (dose: 1000.0 mg/kg/injection, schedule: Q01DX011 (ip), vehicle: saline): 0 of 10

O=c1cc2[nH]c(O)cn2c(=O)[nH]1
survivor count (dose: 120.0 mg/kg/injection, schedule: Q01DX011 (ip), vehicle: carboxymethylcellulose (CMC)): 2 of 10
survivor count [3]: 0 of 10

CCCCOC(OCCCC)C(OCCCC)OCCCC
survivor count (dose: 400.0 mg/kg/injection, schedule: Q01DX011 (ip), vehicle: other): 4 of 10

Cc1ccccc1N(C=O)c1ccccc1C
T/C (dose: 125.0 mg/kg/injection, schedule: Q01DX011 (ip), vehicle: methylcellulose (MC)): 127 % of control

CCOCCNS(=O)(=O)c1ncnc2nc[nH]c12
survivor count [3]: 0 of 10
